The other results are listed elsewhere or left out. Residues, ends and D or L forms follow the SMILES beside them. *: point of attachment. Cbz = O=C(OCc1ccccc1)*
What was measured:
Experiment in all cases: log2 fold change, soluble protein after heating vs DMSO (PISA); higher = thermal stabilisation; K562 cells, 10 uM, 30 min; active = over 0.2 and 3.5 SD of the protein, either way, in both replicates (recomputed)
IRAK-1-4 Inhibitor I = compound: C1COCCN1CCN2C3=CC=CC=C3N=C2NC(=O)C4=CC(=CC=C4)[N+](=O)[O-] [IRAK-1-4 Inhibitor I]
How it was run: (§1)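 For each measurement, 10 μM compound was applied for 30 min to K562 cells at 2×10^6 cells/mL. Aliquots were heated for 3 min across 48°C-58°C, pooled, and extracted in PBS with 0.5% NP-40 at 4°C; the supernatant after 21,000xg for 90 min was soluble protein. This was quantified by TMTpro 16plex LC-MS/MS with channel sums equalised, and thermal stability was reported relative to control samples from duplicates, on a log2 fold-change scale.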

Protein sequences, listed by entry. Tags and fused reporters are not part of them. Lines headed by an entry give the natural chain unless they say otherwise; changes in a name come on top.
UniProt Q9H0E9, whole entry, looked up: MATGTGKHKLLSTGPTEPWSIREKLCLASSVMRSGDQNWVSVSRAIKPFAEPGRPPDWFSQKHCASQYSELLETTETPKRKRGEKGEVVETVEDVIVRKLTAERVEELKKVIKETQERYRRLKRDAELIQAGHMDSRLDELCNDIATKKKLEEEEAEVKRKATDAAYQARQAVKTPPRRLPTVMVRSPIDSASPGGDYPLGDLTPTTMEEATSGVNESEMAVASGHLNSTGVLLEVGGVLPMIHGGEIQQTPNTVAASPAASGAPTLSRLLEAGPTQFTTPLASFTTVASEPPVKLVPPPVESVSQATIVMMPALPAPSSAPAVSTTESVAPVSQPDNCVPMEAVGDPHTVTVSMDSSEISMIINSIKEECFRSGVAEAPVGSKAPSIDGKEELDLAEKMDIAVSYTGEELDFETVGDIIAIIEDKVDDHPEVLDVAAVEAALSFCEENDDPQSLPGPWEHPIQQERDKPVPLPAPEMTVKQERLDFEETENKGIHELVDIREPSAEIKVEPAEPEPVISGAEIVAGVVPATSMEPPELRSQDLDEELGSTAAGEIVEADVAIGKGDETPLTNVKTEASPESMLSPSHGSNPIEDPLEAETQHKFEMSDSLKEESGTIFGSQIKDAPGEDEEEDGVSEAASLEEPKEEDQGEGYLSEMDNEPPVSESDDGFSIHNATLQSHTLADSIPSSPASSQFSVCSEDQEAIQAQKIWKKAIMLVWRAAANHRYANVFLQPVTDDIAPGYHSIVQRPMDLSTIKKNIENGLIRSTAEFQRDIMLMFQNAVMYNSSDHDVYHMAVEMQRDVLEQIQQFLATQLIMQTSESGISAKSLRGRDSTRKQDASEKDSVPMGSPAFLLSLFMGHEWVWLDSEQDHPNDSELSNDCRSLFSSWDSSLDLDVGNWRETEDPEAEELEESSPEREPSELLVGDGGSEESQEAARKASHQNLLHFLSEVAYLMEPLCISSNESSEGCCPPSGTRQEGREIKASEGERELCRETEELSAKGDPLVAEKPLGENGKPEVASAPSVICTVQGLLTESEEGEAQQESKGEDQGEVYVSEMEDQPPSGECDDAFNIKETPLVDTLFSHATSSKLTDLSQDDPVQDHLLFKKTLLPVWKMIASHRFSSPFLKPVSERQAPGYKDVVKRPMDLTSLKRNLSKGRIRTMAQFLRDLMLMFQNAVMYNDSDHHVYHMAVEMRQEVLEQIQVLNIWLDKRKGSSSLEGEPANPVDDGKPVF
UniProt Q9NSY1, whole entry, looked up: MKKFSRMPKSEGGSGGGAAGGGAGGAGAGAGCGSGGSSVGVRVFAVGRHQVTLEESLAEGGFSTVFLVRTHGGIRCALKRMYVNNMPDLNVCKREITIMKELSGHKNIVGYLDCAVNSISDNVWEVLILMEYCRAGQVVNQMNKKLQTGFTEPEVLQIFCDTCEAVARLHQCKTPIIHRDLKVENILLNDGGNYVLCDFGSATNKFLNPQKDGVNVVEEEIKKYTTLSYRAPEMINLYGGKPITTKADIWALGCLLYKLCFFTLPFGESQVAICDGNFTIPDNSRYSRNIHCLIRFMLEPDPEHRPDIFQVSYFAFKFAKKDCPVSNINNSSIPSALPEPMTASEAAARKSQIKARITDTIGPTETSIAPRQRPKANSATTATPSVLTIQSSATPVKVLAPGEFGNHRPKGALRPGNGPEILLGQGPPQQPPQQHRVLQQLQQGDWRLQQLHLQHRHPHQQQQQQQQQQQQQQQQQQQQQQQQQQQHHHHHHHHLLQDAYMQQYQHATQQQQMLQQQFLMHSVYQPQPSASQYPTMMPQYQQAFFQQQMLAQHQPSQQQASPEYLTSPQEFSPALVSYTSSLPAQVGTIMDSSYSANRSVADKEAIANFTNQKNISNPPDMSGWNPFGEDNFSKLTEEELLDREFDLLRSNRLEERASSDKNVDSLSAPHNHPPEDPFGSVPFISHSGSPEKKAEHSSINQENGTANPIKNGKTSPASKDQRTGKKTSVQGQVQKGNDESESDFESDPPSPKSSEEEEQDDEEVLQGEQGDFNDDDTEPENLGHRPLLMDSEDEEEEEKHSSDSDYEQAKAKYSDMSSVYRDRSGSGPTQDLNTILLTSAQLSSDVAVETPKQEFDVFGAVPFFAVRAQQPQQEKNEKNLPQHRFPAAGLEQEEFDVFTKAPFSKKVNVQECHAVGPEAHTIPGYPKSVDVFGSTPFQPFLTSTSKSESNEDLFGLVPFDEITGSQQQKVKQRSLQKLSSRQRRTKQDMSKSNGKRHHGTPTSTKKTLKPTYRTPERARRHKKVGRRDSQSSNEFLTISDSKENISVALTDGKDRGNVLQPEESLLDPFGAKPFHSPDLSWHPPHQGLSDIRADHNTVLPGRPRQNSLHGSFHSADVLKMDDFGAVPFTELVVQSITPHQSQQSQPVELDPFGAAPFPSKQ
UniProt Q14137: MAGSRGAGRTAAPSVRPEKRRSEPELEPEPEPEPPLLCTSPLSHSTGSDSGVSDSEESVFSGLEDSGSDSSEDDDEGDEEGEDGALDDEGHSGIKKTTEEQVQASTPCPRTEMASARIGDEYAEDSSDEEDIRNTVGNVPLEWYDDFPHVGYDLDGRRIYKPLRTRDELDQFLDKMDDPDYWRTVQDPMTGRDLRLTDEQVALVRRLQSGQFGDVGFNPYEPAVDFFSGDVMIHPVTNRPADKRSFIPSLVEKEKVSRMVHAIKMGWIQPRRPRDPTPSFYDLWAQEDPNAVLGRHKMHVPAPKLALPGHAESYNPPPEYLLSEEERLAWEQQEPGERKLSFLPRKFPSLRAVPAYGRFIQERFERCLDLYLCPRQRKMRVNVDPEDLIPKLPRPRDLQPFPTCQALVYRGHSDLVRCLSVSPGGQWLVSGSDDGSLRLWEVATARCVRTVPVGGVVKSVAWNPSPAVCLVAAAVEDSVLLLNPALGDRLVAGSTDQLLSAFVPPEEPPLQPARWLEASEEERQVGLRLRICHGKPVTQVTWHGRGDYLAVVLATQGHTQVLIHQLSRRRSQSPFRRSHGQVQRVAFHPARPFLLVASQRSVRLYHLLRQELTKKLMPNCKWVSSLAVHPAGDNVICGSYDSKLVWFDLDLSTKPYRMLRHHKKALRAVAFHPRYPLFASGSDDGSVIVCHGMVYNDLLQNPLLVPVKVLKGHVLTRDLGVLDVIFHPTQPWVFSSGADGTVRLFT
UniProt O00512: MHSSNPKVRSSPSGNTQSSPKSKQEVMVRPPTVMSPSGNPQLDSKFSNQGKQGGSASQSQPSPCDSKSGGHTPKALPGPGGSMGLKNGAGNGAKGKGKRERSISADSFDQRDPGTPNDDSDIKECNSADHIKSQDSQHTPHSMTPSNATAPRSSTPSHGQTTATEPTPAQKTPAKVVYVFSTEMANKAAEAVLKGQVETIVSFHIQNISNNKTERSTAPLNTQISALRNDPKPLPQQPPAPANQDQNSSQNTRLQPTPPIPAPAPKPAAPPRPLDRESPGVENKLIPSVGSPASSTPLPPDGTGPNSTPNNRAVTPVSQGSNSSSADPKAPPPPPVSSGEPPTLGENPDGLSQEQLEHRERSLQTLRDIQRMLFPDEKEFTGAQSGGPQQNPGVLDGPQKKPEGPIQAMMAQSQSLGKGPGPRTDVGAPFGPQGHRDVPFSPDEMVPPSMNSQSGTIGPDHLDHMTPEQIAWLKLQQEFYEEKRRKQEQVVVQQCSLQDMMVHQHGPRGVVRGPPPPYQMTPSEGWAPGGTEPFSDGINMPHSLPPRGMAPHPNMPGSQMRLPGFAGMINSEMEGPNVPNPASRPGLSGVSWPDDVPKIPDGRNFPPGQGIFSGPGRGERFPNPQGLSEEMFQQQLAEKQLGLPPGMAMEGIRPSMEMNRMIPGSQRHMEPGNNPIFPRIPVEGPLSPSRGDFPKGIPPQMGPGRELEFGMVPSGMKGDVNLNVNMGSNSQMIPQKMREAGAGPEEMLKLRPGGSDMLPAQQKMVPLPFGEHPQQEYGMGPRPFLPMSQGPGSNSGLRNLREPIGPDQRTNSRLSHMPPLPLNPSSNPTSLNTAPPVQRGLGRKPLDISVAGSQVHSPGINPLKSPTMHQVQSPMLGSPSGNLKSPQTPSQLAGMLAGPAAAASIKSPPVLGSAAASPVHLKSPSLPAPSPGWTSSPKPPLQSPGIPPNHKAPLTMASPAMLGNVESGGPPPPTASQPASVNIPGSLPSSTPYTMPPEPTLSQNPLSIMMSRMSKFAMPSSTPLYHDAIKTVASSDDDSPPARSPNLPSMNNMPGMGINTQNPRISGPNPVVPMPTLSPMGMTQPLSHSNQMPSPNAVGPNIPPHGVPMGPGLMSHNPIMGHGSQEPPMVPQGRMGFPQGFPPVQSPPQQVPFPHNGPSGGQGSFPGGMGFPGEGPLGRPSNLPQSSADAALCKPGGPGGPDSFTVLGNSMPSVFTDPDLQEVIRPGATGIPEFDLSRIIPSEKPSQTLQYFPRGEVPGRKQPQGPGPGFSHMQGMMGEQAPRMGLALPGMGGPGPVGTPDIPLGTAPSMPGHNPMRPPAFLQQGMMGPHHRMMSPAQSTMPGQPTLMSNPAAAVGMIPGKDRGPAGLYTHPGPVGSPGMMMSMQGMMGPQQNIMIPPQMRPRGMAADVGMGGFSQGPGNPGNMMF
UniProt Q9BYG0: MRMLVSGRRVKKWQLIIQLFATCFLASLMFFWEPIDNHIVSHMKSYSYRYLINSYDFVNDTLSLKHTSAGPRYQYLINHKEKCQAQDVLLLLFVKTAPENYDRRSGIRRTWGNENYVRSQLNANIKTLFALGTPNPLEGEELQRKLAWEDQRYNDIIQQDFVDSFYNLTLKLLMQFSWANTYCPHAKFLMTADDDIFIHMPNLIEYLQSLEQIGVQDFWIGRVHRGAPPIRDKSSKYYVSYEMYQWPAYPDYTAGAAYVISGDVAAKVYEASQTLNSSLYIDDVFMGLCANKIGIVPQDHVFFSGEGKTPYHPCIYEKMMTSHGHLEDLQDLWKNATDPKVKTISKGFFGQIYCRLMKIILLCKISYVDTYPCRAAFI
UniProt Q13825: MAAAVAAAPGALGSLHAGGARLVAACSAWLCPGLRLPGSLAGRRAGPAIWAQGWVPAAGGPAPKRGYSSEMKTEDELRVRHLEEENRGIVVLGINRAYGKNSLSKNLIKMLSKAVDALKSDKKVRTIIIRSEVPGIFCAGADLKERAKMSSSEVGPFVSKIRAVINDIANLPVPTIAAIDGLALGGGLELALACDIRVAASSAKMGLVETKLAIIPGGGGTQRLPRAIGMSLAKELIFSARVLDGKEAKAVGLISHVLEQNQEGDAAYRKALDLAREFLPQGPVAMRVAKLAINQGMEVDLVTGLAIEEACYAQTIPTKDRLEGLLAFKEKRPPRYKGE
UniProt H3BUF6: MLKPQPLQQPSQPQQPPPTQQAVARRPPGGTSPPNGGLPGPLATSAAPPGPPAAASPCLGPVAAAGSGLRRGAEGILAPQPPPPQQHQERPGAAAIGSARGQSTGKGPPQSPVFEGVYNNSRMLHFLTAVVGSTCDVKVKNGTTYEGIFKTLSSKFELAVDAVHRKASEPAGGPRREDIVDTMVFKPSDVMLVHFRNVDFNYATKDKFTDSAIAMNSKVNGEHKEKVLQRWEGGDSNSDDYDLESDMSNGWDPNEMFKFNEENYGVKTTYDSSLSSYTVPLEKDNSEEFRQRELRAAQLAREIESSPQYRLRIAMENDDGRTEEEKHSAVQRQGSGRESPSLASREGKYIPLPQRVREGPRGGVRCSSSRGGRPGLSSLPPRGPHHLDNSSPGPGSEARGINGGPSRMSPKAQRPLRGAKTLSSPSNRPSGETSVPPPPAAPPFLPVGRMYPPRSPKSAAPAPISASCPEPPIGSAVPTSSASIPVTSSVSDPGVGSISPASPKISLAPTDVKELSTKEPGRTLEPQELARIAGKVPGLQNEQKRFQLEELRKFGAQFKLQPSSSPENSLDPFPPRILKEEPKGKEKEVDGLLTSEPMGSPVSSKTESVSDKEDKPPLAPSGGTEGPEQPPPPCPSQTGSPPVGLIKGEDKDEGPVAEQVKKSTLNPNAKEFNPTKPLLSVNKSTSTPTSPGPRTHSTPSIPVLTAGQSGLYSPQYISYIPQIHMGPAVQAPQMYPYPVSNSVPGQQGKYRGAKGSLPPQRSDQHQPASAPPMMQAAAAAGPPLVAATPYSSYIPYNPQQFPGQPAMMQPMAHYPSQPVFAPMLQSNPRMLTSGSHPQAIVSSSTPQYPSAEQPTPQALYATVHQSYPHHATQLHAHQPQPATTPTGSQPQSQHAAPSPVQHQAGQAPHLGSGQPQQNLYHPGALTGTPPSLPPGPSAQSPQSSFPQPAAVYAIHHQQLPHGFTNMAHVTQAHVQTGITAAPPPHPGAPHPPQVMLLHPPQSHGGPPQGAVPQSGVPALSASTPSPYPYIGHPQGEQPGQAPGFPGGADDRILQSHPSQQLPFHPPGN
UniProt Q9BUT1: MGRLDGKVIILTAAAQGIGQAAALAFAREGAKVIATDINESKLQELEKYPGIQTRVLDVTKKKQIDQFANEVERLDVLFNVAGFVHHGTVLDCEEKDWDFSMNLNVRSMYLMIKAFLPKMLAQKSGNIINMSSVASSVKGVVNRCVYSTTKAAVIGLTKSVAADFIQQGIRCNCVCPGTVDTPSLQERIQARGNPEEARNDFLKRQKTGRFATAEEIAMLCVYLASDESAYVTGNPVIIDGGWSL

ibrutinib = compound: C=CC(=O)N1CCC[C@@H](n2nc(-c3ccc(Oc4ccccc4)cc3)c3c(N)ncnc32)C1 [ibrutinib]
How it was run: as §1

[1] = compound: CC(=O)c1cnc2ccc(-c3cc(Cl)c(O)c(Cl)c3)nc2c1N[C@H]1CC[C@H](CN(C)C)CC1
How it was run: as §1

ralimetinib = compound: CC(C)(C)Cn1c(N)nc2ccc(-c3[nH]c(C(C)(C)C)nc3-c3ccc(F)cc3)nc21 [ralimetinib]
How it was run: as §1

[2] = compound: CC(C)(O)CC(=O)NCCn1ccc2ncnc(Nc3ccc(Oc4cccc(C(F)(F)F)c4)c(Cl)c3)c21
How it was run: as §1

[3] = compound: CC(C)C1=C2N=C(C=C(N2N=C1)NCC3=CC=CC=C3)NCCCCCCN
How it was run: as §1

[4] = compound: CC(C)C[C@@H](C=O)NC(=O)[C@H](CC(C)C)NC(=O)[C@H](CC(C)C)NC(=O)OCc1ccccc1
How it was run: as §1

pinometostat = compound: CC(C)N(C[C@H]1O[C@@H](n2cnc3c(N)ncnc32)[C@H](O)[C@@H]1O)[C@H]1C[C@@H](CCc2nc3cc(C(C)(C)C)ccc3[nH]2)C1 [pinometostat]
How it was run: as §1

[5] = compound: CC1=C(C2=C(C=C1)C(=O)C3=CC=CC=C3N2CCCN)C
How it was run: as §1

[6] = compound: CC1=C(C(CC(=O)N1)C2=CC=C(C=C2)C(F)(F)F)C(=O)NC3=C(C=C4C(=C3)C=NN4)F
How it was run: as §1

Measured: log2 fold change

BRD8 isoform 2 (UniProt Q9H0E9)
inactive: IRAK-1-4 Inhibitor I 0.028 | ibrutinib 0 | [1] 0.036 | ralimetinib -0.103 | [2] 0.021 | [3] -0.003 | [4] 0.093 | pinometostat 0.01 | [5] -0.071

B4GALNT1 (UniProt Q00973)
inactive: IRAK-1-4 Inhibitor I 0.01 | ibrutinib -0.159 | [1] -0.188 | ralimetinib -0.129 | [2] 0.017 | [3] 0.038 | [4] 0.052 | pinometostat -0.101 | [5] 0.057

BMP2K (UniProt Q9NSY1)
inactive: IRAK-1-4 Inhibitor I 0.003 | ibrutinib 0.071 | ralimetinib 0.058 | [2] -0.028 | [3] -0.027 | [4] 0.085 | pinometostat -0.008 | [5] -0.009
active: [1] 0.559

BLM (UniProt P54132)
inactive: IRAK-1-4 Inhibitor I -0.086 | ibrutinib -0.075 | [1] -0.168 | ralimetinib -0.062 | [3] -0.122 | [4] -0.069 | pinometostat -0.004 | [6] -0.06 | [5] 0.292

BOP1 (UniProt Q14137)
inactive: IRAK-1-4 Inhibitor I -0.039 | ibrutinib 0.01 | [1] -0.083 | ralimetinib 0.041 | [2] 0.119 | [3] -0.068 | [4] 0.031 | pinometostat 0.021 | [5] -0.078

BCAS3 isoform 8 (UniProt Q9H6U6)
inactive: IRAK-1-4 Inhibitor I 0.041 | [1] -0.185 | [3] -0.062 | pinometostat 0.014 | [5] -0.035

BCL9L (UniProt Q86UU0)
inactive: IRAK-1-4 Inhibitor I -0.045 | ibrutinib 0 | [1] 0.04 | ralimetinib -0.024 | [2] -0.009 | [3] 0.015 | [4] 0.092 | pinometostat 0.013 | [5] 0.101

BPNT1 (UniProt A6NF51)
inactive: IRAK-1-4 Inhibitor I 0 | ibrutinib 0.244 | ralimetinib 0.099 | [2] -0.031 | [3] 0.114 | [4] -0.125 | pinometostat 0.044 | [5] -0.043

BCL9 (UniProt O00512)
inactive: IRAK-1-4 Inhibitor I 0.001 | [1] -0.105 | ralimetinib -0.197 | [2] 0.047 | [3] 0.093 | [4] 0.194 | pinometostat 0.101 | [5] 0.041

ATXN7L3 isoform 2 (UniProt Q14CW9)
inactive: IRAK-1-4 Inhibitor I 0.114 | ibrutinib 0.147 | [1] 0.027 | ralimetinib 0.036 | [3] 0.066 | [4] -0.053 | pinometostat 0.093

B4GALT1 (UniProt P15291)
inactive: IRAK-1-4 Inhibitor I 0.034 | ibrutinib -0.057 | [1] -0.019 | ralimetinib 0.094 | [2] 0.094 | [4] 0.017 | pinometostat -0.051 | [5] -0.03
active: [3] -0.294

BLVRB (UniProt P30043)
inactive: IRAK-1-4 Inhibitor I 0.075 | ibrutinib 0.037 | [1] 0.154 | ralimetinib 0.056 | [2] -0.019 | [3] -0.048 | [4] -0.037 | pinometostat -0.005 | [5] 0.059

BPIFA1 (UniProt Q9NP55)
inactive: IRAK-1-4 Inhibitor I -0.252 | ibrutinib 0.08 | ralimetinib -0.043 | [4] -0.385 | pinometostat -0.072 | [6] -0.323

B3GNT5 (UniProt Q9BYG0)
inactive: IRAK-1-4 Inhibitor I 0.076 | ibrutinib 0.102 | [2] -0.063 | [3] -0.06 | pinometostat 0.041 | [6] -0.011

BRD8 (UniProt Q9H0E9)
inactive: IRAK-1-4 Inhibitor I 0 | ibrutinib -0.014 | [1] -0.009 | ralimetinib -0.022 | [2] -0.012 | [3] -0.013 | [4] 0.098 | pinometostat 0.001 | [5] -0.019

ATRN (UniProt O75882)
inactive: IRAK-1-4 Inhibitor I -0.084 | ibrutinib 0.083 | [1] 0.012 | [2] -0.02 | [3] 0.033 | pinometostat 0.079 | [5] 0.044

BCAR1 isoform 6 (UniProt P56945)
inactive: IRAK-1-4 Inhibitor I -0.086 | ibrutinib -0.035 | [1] 0.031 | ralimetinib 0.014 | [2] -0.026 | [3] -0.031 | [4] 0.123 | pinometostat 0.122 | [5] -0.034

BRD3 (UniProt Q15059)
inactive: IRAK-1-4 Inhibitor I 0.163 | ibrutinib 0.037 | [1] -0.032 | ralimetinib -0.136 | [3] 0.152 | [4] -0.065 | pinometostat 0.143 | [5] 0.162

AUH (UniProt Q13825)
inactive: IRAK-1-4 Inhibitor I -0.237 | ibrutinib 0.031 | [1] 0.036 | ralimetinib -0.003 | [3] 0.084 | [4] 0.026 | pinometostat 0.28 | [5] 0.032

3 successive entries from above:
BRD8 (UniProt Q9H0E9)
inactive: IRAK-1-4 Inhibitor I 0 | ibrutinib -0.014 | [1] -0.009 | ralimetinib -0.022 | [2] -0.012 | [3] -0.013 | [4] 0.098 | pinometostat 0.001 | [5] -0.019

ATRN (UniProt O75882)
inactive: IRAK-1-4 Inhibitor I -0.084 | ibrutinib 0.083 | [1] 0.012 | [2] -0.02 | [3] 0.033 | pinometostat 0.079 | [5] 0.044

BCAR1 isoform 6 (UniProt P56945)
inactive: IRAK-1-4 Inhibitor I -0.086 | ibrutinib -0.035 | [1] 0.031 | ralimetinib 0.014 | [2] -0.026 | [3] -0.031 | [4] 0.123 | pinometostat 0.122 | [5] -0.034

The listing continues.

BAP1 (UniProt Q92560)
inactive: IRAK-1-4 Inhibitor I -0.038 | ibrutinib -0.056 | [1] -0.125 | ralimetinib 0.06 | [2] -0.014 | [3] -0.217 | [4] 0.048 | pinometostat 0.163 | [5] -0.17

BAK1 (UniProt Q16611)
inactive: IRAK-1-4 Inhibitor I 0.021 | ibrutinib 0.097 | [1] -0.209 | [2] -0.018 | [3] -0.063 | pinometostat 0.048 | [6] 0.011 | [5] 0.154

BRAP (UniProt Q7Z569)
inactive: IRAK-1-4 Inhibitor I -0.032 | ibrutinib -0.066 | [1] -0.018 | ralimetinib 0.16 | [2] -0.016 | [3] -0.11 | [4] -0.093 | pinometostat 0.033
active: [5] 0.263

BRIP1 (UniProt Q9BX63)
inactive: IRAK-1-4 Inhibitor I 0.017 | ibrutinib 0.12 | [1] -0.073 | ralimetinib 0.006 | [2] 0.039 | [3] -0.036 | [4] -0.064 | pinometostat 0.084
active: [5] 0.333

BLVRA (UniProt C9J1E1)
inactive: IRAK-1-4 Inhibitor I 0.252 | ibrutinib -0.05 | [1] -0.143 | [3] 0.012 | pinometostat 0.063 | [6] -0.172

ATXN2L (UniProt H3BUF6)
inactive: IRAK-1-4 Inhibitor I -0.017 | ibrutinib -0.039 | ralimetinib -0.031 | [4] -0.001 | pinometostat 0.021 | [6] 0.039

BCOR (UniProt Q6W2J9)
inactive: IRAK-1-4 Inhibitor I 0.078 | ibrutinib -0.043 | [2] 0.03 | [3] 0.062 | pinometostat 0.087 | [5] 0

BRAF (UniProt P15056)
inactive: IRAK-1-4 Inhibitor I -0.025 | ibrutinib 0.002 | ralimetinib 0.019 | [3] -0.044 | [4] -0.031 | pinometostat 0.047 | [5] 0.056

ATRAID isoform 3 (UniProt Q6UW56)
inactive: IRAK-1-4 Inhibitor I -0.041 | ibrutinib -0.044 | [1] -0.031 | ralimetinib 0.003 | [3] -0.038 | [4] 0.041 | pinometostat 0 | [6] 0.144 | [5] 0.077

B3GALNT2 (UniProt Q8NCR0)
inactive: IRAK-1-4 Inhibitor I -0.198 | ibrutinib 0.003 | ralimetinib 0.142 | [2] -0.004 | [3] -0.214 | [4] 0.037 | pinometostat -0.15 | [5] 0

AUP1 (UniProt Q9Y679)
inactive: IRAK-1-4 Inhibitor I 0.035 | ibrutinib -0.026 | [1] 0.003 | ralimetinib 0.007 | [2] -0.164 | [4] -0.033 | pinometostat 0.011 | [5] 0.08
active: [3] -0.482

BRAF, A0A2R8Y8E0
inactive: IRAK-1-4 Inhibitor I 0.055 | [1] 0.156 | ralimetinib 0.059 | [3] -0.188 | [4] 0.067 | pinometostat -0.04 | [5] 0.078

BDH2 (UniProt Q9BUT1)
inactive: IRAK-1-4 Inhibitor I -0.009 | ibrutinib 0.041 | [1] -0.073 | ralimetinib -0.059 | [3] 0.183 | [4] 0.001 | pinometostat 0.004

BCDIN3D (UniProt Q7Z5W3)
inactive: ibrutinib 0.059 | [1] -0.109 | [5] 0.04

From the supplement of paper PMC10849652
